Test results published in US20210079087A1 (REMD BIOTHERAPEUTICS, published 2021).
Positions count from the first letter of the chain named. These are yes or no findings as the source states them, for the method shown. Some results given as binding are weak or reduced against the parent protein; the word gives no strength.

Amino acid sequences for entries named in this document (tags omitted). A change or cut given only in a name is not applied to a line headed by its entry.
UniProt Q16552: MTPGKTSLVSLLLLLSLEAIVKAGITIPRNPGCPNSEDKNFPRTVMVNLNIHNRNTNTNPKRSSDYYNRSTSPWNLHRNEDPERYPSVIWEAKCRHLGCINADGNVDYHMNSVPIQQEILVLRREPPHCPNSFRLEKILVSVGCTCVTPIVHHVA

B1: 23A4D8 (antibody, mouse IgG2a, V domains shown)
VH: EVQLQQSGPELVKPGASVKISCKASGFTFTDYYMNWMKQSHGKSLEWIGDINPKNGGTIFNQNFRGKATLTVDKSSSTAYMELRSLTSEDSAVYYCARSILTGPFYFDYWGQGTTLTVSS
VL: DIVLTQSPASLAVSLGQRAIISCKASQSVSFAGTGLMHWYQQKSGQQPKLLISRASNLEAGVPTRFSGSGSRTDFTLNIHPVEEDDAATYYCQQTMEYPTFGGGTKLEIK
notes: also called Murine 23A4D8; parental
B2: 22E2G4 (antibody, mouse IgG1, V domains shown)
VH: QVQLQQPGAELVMPGTSVRLSCKASGYTFTSYWMHWVKQRPGQGLEWIGEIDPSDTYTNYNPKFKGKATLTVDKSSSTAYMQFTSLTSEDSAVYYCARSGIYYDYYEDYWGQGTTLTVSS
VL: DVVMTQTPLSLPVSLGDQASISCRSSQILLHSNGNTYLHWYLQKPGQSPKLLIYKVSNRFSGVPDRFSGSGSGTDFTLKISRVEAEDLGVYFCSQSVHVPTFGGGTKLEIK
notes: amino acids 1-19 are stated as the leader; also called A3
B3: 24F11E4 (antibody, mouse IgG1, V domains shown)
VH: B2 VH with T16A, S31N, M34I, Y57F, N61S, F83L, S85G, Y95F
VL: B2 VL with A19V, E86D
notes: amino acids 1-19 are stated as the leader; also called A5
B4: 26G11B11 (antibody, mouse IgG1, V domains shown)
VH: B2 VH with T16A, R19K, S25A, T56S, P62Q, F83L, T84S
VL: B2 VL with I28S, L30V, V97I
notes: amino acids 1-19 are stated as the leader; also called A6
B5: 4H11C7 (antibody, mouse IgG1, V domains shown)
VH: QVTLKESGPGILQPSQTLSLTCSFSGFSLNTFGMGVDWIRQPSGKGLEWLAHIWWDDDKYYNPALESRLTISKDASKNQVFLKIANVDTADTATYYCSRRELGPYFFDYWGQGTTLTVSS
VL: GVLMTQTPLSLPVSLGDQASISCRSSQSIVHSNGNTYLEWYLQKPGQSPKLLIYKVSNRFSGVPDRFSGSGSGTDFTLKINRVEAEDLGVYYCFQGSHFPYTFGGGTKLEID
notes: amino acids 1-19 are stated as the leader; also called A1

How the values were obtained:
human IL-17A [1] = target: T1, human IL-17A (human, UniProt Q16552 24-155); test: blocking ELISA, IL-17A/IL-17R (lower panel 'IL17A/IL17R IC50', normalised IL17A Binding); blocked partner: IL-17R
[2] = target: cyno primate IL-17A (cyno primate); test: ELISA on coated cyno IL-17A ('cy IL17A 122116 (naked IL17A 1 ug/ml)'), OD450
human IL-17A [3] = target: T1, human IL-17A; test: ELISA
[4] = target: cyno primate IL-17A (cyno primate); test: ELISA
human IL-17A [5] = target: T1, human IL-17A; test: ELISA, binding to human IL-17A (upper panel 'IL17A EC50', normalised IL17 Binding)

| Binder | binding (human IL-17A [1]) | binding [2] | binding (human IL-17A [3]) | binding [4] | binding (human IL-17A [5]) |
| --- | --- | --- | --- | --- | --- |
| B1 | binds | binds | binds | binds | binds |
| B2 |  | binds |  | binds |  |
| B3 |  | binds |  | binds |  |
| B4 |  | binds |  | binds |  |
| B5 |  | binds |  | binds |  |
